Source: publication PMC9481933
Results are given in words; binding and its absence hold for the method and conditions named. In cells and extracts the contact can be indirect. Some binding calls cover weakened binding; strength is not graded here. For part of these data: Where a sequence is shown, tags or fusion partners need not be part of it. Values belong to the binder of their own block, whether it stands above or below them.

Protein sequences, listed by entry. Tags and fused reporters are not part of them.
UniProt P08238: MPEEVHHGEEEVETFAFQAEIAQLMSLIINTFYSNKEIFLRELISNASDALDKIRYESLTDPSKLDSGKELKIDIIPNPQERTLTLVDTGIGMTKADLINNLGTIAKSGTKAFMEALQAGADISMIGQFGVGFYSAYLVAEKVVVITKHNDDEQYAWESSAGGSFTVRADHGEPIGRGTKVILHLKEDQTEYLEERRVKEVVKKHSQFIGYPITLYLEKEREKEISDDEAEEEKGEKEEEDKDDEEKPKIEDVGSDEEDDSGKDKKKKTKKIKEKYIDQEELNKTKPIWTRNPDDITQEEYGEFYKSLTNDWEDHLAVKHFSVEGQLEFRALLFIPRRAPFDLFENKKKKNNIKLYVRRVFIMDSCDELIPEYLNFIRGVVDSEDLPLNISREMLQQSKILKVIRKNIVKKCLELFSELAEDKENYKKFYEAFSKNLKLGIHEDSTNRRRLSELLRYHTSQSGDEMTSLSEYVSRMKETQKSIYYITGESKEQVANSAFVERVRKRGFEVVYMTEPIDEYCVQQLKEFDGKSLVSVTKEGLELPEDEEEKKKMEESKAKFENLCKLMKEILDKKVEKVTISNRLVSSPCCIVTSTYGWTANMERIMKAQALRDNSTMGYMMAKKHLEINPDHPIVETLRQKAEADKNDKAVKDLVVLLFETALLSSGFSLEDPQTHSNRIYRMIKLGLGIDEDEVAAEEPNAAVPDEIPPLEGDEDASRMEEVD

Legend:
HA-FLAG-HSP90AB1, P08238 = experiment: co-IP; SH-SY5Y CCNF WT and CCNF KO cells expressing HA-FLAG-HSP90AB1 or mock; mild lysis, HA-IP, SDS-PAGE and immunoblotting of endogenous clients and co-factors; conditions: remark: other sources report otherwise
HA-FLAG-HSP90AB1 = HA-FLAG-HSP90AB1 (UniProt P08238); experiment: as above
[1] = biological target: T1, HA-FLAG-tagged Cyclin-F (wild type), in SH-SY5Y cells (UniProt P41002); experiment: co-IP; lysates of parental (mock), HA-FLAG-FBXO28 or HA-FLAG-CCNF overexpressing SH-SY5Y cells; HA or Flag immunoprecipitation overnight at 4 C, SDS-PAGE and immunoblotting of endogenous partners
T1 sequence: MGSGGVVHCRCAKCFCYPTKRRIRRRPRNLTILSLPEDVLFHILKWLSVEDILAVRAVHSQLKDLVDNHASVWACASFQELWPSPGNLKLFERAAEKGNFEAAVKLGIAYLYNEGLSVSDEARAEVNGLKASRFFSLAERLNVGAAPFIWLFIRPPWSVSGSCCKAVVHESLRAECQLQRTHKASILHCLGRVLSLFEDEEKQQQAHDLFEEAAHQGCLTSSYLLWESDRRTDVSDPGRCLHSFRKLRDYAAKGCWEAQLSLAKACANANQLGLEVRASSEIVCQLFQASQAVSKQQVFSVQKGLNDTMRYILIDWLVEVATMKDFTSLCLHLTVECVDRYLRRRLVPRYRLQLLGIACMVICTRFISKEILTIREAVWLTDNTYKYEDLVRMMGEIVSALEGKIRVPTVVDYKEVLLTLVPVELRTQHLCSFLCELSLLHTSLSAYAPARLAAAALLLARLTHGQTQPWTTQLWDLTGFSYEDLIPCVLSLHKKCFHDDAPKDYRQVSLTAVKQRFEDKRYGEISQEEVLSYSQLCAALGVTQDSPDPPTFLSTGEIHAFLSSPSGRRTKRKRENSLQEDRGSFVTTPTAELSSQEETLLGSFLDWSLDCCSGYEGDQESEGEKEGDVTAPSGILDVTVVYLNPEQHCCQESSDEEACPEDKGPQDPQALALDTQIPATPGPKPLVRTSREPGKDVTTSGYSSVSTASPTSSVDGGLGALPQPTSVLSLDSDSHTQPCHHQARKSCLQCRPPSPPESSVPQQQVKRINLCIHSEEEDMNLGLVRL

binding (HA-FLAG-HSP90AB1, P08238): binds
B1: heat shock factor 1 (HSF1) (endogenous), Q00613 1-529 (protein)
chain: MDLPVGPGAAGPSNVPAFLTKLWTLVSDPDTDALICWSPSGNSFHVFDQGQFAKEVLPKYFKHNNMASFVRQLNMYGFRKVVHIEQGGLVKPERDDTEFQHPCFLRGQEQLLENIKRKVTSVSTLKSEDIKIRQDSVTKLLTDVQLMKGKQECMDSKLLAMKHENEALWREVASLRQKHAQQQKVVNKLIQFLISLVQSNRILGVKRKIPLMLNDSGSAHSMPKYSRQFSLEHVHGSGPYSAPSPAYSSSSLYAPDAVASSGPIISDITELAPASPMASPGGSIDERPLSSSPLVRVKEEPPSPPQSPRVEEASPGRPSSVDTLLSPTALIDSILRESEPAPASVTALTDARGHTDTEGRPPSPPPTSTPEKCLSVACLDKNELSDHLDAMDSNLDNLQTMLSSHGFSVDTSALLDLFSPSVTVPDMSLPDLDSSLASIQELLSPQEPPRPPEAENSSPDSGKQLVHYTAQPLFLLDPGSVDTGSNDLPVLFELGEGSYFSEGDGFAEDPTISLLTGSEPPKAKDPTVS

binding (HA-FLAG-HSP90AB1): binds
B2: TBK1 (endogenous) (protein, UniProt Q9UHD2 1-729)
chain: MQSTSNHLWLLSDILGQGATANVFRGRHKKTGDLFAIKVFNNISFLRPVDVQMREFEVLKKLNHKNIVKLFAIEEETTTRHKVLIMEFCPCGSLYTVLEEPSNAYGLPESEFLIVLRDVVGGMNHLRENGIVHRDIKPGNIMRVIGEDGQSVYKLTDFGAARELEDDEQFVSLYGTEEYLHPDMYERAVLRKDHQKKYGATVDLWSIGVTFYHAATGSLPFRPFEGPRRNKEVMYKIITGKPSGAISGVQKAENGPIDWSGDMPVSCSLSRGLQVLLTPVLANILEADQEKCWGFDQFFAETSDILHRMVIHVFSLQQMTAHKIYIHSYNTATIFHELVYKQTKIISSNQELIYEGRRLVLEPGRLAQHFPKTTEENPIFVVSREPLNTIGLIYEKISLPKVHPRYDLDGDASMAKAITGVVCYACRIASTLLLYQELMRKGIRWLIELIKDDYNETVHKKTEVVITLDFCIRNIEKTVKVYEKLMKINLEAAELGEISDIHTKLLRLSSSQGTIETSLQDIDSRLSPGGSLADAWAHQEGTHPKDRNVEKLQVLLNCMTEIYYQFKKDKAERRLAYNEEQIHKFDKQKLYYHATKAMTHFTDECVKKYEAFLNKSEEWIRKMLHLRKQLLSLTNQCFDIEEEVSKYQEYTNELQETLPQKMFTASSGIKHTMTPIYPSSNTLVEMTLGMKKLKEEMEGVVKELAENNHILERFGSLTMDGGLRNVDCL

binding [1]: binds
B3: DNAJC7 (endogenous, human) (protein, UniProt Q99615 1-494)
chain: MAAAAECDVVMAATEPELLDDQEAKREAETFKEQGNAYYAKKDYNEAYNYYTKAIDMCPKNASYYGNRAATLMMLGRFREALGDAQQSVRLDDSFVRGHLREGKCHLSLGNAMAACRSFQRALELDHKNAQAQQEFKNANAVMEYEKIAETDFEKRDFRKVVFCMDRALEFAPACHRFKILKAECLAMLGRYPEAQSVASDILRMDSTNADALYVRGLCLYYEDCIEKAVQFFVQALRMAPDHEKACIACRNAKALKAKKEDGNKAFKEGNYKLAYELYTEALGIDPNNIKTNAKLYCNRGTVNSKLRKLDDAIEDCTNAVKLDDTYIKAYLRRAQCYMDTEQYEEAVRDYEKVYQTEKTKEHKQLLKNAQLELKKSKRKDYYKILGVDKNASEDEIKKAYRKRALMHHPDRHSGASAEVQKEEEKKFKEVGEAFTILSDPKKKTRYDSGQDLDEEGMNMGDFDPNNIFKAFFGGPGGFSFEASGPGNFFFQFG
